No constants are given. Whether binding was seen depends on the method and setting. In cells and extracts the contact can be indirect. Some entries that bind do so weakly or less than the wild type. Tags and fused reporters may be left off the sequences shown.

Protein sequences, listed by entry. Tags and fused reporters are not part of them.
UniProt P0A988: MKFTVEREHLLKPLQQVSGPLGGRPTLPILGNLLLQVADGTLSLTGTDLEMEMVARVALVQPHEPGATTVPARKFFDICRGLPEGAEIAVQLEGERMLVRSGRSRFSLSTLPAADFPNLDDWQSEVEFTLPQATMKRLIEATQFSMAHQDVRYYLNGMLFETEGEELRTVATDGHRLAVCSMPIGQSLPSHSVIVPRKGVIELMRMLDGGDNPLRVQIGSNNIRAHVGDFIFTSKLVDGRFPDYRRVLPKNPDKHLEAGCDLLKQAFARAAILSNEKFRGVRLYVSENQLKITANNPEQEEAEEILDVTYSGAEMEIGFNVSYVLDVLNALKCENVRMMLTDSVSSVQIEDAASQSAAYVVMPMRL

For this assay, the target named is T1, N-terminally his-tagged RecB expressed from pBAD30-recB (Escherichia coli) (UniProt P08394).
T1 sequence: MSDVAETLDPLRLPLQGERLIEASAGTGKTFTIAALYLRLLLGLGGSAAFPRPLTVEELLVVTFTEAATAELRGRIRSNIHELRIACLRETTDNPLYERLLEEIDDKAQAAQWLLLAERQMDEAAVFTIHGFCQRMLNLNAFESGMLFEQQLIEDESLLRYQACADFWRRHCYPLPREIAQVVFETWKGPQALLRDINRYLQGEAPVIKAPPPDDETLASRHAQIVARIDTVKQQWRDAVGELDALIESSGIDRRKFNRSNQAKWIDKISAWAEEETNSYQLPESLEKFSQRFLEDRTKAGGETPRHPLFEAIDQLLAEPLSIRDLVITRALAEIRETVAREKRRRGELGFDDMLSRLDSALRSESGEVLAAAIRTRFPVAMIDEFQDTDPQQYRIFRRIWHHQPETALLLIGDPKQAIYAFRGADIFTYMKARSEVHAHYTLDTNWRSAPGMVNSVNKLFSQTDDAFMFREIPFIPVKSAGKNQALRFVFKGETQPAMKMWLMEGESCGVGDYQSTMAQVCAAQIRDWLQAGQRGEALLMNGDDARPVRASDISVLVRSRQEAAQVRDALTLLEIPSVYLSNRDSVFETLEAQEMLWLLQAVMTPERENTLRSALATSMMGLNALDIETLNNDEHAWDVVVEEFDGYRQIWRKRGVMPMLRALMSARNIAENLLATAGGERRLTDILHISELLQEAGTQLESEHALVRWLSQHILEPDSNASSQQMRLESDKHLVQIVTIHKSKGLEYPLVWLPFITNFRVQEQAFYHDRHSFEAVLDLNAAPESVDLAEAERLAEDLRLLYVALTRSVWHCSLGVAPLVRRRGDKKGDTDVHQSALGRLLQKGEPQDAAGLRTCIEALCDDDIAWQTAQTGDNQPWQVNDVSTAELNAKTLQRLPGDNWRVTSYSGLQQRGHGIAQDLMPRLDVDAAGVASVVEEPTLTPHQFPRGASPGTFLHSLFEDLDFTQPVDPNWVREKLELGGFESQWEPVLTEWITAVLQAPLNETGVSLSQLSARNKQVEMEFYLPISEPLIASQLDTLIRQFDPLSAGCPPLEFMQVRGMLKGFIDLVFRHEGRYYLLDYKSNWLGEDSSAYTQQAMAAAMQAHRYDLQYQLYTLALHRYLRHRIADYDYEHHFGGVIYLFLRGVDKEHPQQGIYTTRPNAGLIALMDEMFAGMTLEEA
The assay is described as follows: co-IP; His-tagged RecB as bait on Dynabeads His-Tag Isolation and Pulldown beads; lysate of formaldehyde-crosslinked MG1655; 30 min at 4°C; washes with 300 mM NaCl; elution with 300 mM imidazole; Western blot with anti-β-clamp. On the technique in general: In western blotting, separated proteins are transferred to a membrane and probed.

In the case of “β-clamp (DnaN), endogenous in E. coli MG1655 (from UniProt P0A988 1-366)”, the binding entry is recorded as “binds”.
